In doi:10.1101/2020.09.12.294645:
These are yes or no findings as the source states them, for the method shown. In cells and extracts the contact can be indirect. Some results given as binding are weak or reduced against the parent protein; the word gives no strength.

The chains behind the UniProt entries cited, without tags or fusion partners.
UniProt Q6ZRS2: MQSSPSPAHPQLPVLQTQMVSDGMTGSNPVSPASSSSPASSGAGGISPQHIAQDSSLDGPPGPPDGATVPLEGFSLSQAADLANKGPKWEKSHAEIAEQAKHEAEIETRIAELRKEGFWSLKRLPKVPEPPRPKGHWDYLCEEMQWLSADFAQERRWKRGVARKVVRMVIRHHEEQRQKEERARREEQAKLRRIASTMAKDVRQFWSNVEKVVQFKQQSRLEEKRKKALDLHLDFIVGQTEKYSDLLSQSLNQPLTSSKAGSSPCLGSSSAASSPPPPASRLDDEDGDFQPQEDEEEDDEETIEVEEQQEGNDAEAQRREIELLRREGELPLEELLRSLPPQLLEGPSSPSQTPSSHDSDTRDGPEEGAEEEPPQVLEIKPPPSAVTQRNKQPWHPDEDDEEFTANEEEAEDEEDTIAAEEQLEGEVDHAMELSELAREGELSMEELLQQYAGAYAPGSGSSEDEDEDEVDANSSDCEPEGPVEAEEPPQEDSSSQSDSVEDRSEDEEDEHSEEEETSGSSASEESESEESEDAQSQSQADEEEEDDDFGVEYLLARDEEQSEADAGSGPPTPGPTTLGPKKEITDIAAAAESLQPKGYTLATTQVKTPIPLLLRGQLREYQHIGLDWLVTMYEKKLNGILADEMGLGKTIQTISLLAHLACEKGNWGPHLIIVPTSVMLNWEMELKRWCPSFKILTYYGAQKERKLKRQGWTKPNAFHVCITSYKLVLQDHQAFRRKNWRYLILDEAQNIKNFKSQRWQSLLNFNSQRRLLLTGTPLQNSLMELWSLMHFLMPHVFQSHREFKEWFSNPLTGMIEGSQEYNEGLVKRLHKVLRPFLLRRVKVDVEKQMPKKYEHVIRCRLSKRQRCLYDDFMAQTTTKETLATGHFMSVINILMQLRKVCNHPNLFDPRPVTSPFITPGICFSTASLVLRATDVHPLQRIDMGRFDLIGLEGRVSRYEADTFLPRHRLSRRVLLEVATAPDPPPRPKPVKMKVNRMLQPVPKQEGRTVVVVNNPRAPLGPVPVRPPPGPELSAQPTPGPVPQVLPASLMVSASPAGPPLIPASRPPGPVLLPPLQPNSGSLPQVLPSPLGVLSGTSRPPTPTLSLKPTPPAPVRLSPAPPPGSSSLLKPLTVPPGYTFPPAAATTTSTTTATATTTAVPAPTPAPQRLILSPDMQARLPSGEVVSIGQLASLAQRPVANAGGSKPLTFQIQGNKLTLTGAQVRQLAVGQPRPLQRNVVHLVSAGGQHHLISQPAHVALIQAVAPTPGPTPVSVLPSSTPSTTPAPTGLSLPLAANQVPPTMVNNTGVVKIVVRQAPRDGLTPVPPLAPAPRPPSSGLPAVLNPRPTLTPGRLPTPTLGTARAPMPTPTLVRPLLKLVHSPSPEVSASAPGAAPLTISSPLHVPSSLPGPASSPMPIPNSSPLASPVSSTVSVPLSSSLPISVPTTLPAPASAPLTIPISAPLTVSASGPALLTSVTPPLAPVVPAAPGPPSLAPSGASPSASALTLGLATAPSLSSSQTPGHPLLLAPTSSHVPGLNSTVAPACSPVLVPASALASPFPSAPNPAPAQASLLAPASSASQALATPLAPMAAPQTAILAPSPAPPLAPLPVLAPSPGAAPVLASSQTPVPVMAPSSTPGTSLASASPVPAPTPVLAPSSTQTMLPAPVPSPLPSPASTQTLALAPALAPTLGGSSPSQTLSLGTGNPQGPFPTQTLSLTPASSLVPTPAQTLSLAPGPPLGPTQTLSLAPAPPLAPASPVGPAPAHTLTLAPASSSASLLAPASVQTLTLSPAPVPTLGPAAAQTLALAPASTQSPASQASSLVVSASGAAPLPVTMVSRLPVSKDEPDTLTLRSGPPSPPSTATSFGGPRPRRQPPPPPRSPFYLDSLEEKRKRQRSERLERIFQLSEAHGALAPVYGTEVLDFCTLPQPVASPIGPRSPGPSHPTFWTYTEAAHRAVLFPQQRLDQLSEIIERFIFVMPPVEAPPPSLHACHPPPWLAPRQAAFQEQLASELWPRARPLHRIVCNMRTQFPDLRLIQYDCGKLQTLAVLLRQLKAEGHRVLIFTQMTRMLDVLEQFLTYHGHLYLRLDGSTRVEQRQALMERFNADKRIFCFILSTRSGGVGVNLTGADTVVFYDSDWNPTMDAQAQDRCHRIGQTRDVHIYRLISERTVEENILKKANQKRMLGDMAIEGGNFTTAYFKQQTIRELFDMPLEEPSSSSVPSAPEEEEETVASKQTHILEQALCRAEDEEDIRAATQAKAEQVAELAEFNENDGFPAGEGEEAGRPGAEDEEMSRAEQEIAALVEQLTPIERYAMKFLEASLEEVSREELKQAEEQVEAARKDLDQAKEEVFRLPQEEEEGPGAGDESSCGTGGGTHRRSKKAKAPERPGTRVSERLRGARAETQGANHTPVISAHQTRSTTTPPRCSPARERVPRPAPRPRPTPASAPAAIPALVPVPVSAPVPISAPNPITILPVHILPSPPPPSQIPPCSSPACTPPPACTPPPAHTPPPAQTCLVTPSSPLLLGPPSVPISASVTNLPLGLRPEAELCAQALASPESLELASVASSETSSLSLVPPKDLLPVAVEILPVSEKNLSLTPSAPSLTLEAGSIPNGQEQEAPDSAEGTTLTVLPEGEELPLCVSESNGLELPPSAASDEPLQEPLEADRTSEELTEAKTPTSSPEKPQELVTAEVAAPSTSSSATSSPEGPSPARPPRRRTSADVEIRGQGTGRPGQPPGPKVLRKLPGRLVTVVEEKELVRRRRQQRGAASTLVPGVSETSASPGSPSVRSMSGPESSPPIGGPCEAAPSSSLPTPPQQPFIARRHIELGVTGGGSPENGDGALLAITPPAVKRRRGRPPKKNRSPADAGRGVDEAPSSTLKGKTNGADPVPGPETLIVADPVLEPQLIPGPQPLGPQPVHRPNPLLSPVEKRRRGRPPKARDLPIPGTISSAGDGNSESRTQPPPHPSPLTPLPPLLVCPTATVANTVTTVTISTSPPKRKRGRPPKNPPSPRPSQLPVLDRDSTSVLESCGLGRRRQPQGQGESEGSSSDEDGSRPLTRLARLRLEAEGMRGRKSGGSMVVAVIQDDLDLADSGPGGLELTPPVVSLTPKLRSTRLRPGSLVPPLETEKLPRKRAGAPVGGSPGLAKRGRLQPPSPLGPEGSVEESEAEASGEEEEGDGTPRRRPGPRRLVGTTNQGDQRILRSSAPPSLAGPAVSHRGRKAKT
UniProt Q96GD4: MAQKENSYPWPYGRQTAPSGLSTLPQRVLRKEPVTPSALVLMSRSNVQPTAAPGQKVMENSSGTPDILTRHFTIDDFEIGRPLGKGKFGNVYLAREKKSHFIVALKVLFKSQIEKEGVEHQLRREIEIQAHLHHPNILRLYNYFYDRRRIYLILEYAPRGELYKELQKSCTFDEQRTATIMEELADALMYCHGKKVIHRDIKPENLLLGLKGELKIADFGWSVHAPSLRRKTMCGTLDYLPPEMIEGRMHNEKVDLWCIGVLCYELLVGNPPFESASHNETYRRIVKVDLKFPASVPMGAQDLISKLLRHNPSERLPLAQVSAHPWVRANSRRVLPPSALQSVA
UniProt P53350: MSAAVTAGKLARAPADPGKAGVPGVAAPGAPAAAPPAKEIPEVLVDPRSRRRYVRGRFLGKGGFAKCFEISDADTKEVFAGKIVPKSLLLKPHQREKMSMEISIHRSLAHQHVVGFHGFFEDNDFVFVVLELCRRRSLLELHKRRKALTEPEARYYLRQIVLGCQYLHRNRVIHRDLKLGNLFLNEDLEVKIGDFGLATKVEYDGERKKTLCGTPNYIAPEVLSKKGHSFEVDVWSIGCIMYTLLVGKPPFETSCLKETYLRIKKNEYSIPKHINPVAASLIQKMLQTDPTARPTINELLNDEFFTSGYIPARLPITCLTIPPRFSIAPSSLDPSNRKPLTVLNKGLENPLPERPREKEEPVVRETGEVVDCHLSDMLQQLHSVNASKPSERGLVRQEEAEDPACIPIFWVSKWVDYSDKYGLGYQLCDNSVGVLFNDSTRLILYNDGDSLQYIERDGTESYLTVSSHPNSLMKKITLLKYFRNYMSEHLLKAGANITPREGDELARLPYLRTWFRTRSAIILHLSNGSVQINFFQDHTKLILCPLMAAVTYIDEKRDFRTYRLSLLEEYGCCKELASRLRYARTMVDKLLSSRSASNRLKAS
UniProt O14578: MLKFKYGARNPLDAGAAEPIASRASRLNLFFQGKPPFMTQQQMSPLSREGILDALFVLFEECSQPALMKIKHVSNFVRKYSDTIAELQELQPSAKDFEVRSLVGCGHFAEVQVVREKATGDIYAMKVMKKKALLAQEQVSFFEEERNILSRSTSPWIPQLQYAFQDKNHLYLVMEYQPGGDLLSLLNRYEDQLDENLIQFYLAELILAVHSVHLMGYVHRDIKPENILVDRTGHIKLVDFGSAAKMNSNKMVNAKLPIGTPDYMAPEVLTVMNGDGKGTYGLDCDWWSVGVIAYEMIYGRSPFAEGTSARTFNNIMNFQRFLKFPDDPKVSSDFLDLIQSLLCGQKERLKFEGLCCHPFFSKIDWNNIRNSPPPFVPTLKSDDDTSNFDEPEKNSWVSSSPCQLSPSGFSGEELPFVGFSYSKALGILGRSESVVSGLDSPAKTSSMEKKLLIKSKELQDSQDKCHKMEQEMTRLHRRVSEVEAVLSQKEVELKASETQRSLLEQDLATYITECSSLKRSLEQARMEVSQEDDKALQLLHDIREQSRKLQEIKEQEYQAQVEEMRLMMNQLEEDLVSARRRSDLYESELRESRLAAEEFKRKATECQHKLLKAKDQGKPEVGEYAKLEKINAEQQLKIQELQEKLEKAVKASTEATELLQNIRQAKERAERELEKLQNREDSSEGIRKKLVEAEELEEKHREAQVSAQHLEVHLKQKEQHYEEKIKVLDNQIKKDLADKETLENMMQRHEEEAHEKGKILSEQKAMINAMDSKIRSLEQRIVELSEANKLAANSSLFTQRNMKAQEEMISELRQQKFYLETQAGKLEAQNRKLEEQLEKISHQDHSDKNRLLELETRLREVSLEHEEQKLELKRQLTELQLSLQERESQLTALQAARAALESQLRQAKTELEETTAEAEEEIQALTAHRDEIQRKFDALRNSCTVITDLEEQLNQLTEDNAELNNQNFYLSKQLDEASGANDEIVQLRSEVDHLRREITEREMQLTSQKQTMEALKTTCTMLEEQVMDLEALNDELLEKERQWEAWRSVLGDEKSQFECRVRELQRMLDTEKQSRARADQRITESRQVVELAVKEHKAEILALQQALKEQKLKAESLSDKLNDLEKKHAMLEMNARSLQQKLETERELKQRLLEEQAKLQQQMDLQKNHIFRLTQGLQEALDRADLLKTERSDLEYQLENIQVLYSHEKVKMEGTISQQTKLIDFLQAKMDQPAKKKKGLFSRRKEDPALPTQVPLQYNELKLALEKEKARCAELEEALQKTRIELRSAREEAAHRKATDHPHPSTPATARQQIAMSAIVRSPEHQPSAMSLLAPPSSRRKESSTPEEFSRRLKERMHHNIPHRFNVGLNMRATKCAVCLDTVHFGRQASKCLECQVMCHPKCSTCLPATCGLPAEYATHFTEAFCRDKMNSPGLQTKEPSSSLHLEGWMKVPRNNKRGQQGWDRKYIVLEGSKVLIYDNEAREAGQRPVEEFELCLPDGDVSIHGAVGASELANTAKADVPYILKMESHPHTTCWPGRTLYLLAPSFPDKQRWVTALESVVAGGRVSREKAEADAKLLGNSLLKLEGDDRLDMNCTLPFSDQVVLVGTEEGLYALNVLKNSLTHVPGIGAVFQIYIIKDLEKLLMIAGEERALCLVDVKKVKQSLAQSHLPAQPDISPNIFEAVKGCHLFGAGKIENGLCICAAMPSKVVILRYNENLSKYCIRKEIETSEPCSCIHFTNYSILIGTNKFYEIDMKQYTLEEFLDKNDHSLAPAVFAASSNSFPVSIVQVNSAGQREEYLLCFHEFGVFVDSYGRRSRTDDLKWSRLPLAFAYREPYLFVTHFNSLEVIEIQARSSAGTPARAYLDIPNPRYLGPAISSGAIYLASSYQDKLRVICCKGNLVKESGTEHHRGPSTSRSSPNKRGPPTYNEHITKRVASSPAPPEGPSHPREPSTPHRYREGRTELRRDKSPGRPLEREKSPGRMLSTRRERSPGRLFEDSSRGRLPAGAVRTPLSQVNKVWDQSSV

Biological target: SNF2-Related CBP Activator Protein (ATPase SRCAP) (human (endogenous in HeLa)) (UniProt Q6ZRS2)
Assay: co-IP

| Molecule | binding |
| --- | --- |
| Aurora B (from UniProt Q96GD4 1-344) (enzyme) | binds |
| MKLP2 (from UniProt O95235 1-890) | binds |
| PLK1 (from UniProt P53350 1-603) (enzyme) | binds |
| Spastin (enzyme, UniProt Q9UBP0 1-616) MNSPGGRGKKKGSGGASNPVPPRPPPPCLAPAPPAAGPAPPPESPHKRNLYYFSYPLFVGFALLRLVAFHLGLLFVWLCQRFSRALMAAKRSSGAAPAPASASAPAPVPGGEAERVRVFHKQAFEYISIALRIDEDEKAGQKEQAVEWYKKGIEELEKGIAVIVTGQGEQCERARRLQAKMMTNLVMAKDRLQLLEKMQPVLPFSKSQTDVYNDSTNLACRNGHLQSESGAVPKRKDPLTHTSNSLPRSKTVMKTGSAGLSGHHRAPSYSGLSMVSGVKQGSGPAPTTHKGTPKTNRTNKPSTPTTATRKKKDLKNFRNVDSNLANLIMNEIVDNGTAVKFDDIAGQDLAKQALQEIVILPSLRPELFTGLRAPARGLLLFGPPGNGKTMLAKAVAAESNATFFNISAASLTSKYVGEGEKLVRALFAVARELQPSIIFIDEVDSLLCERREGEHDASRRLKTEFLIEFDGVQSAGDDRVLVMGATNRPQELDEAVLRRFIKRVYVSLPNEETRLLLLKNLLCKQGSPLTQKELAQLARMTDGYSGSDLTALAKDAALGPIRELKPEQVKNMSASEMRNIRLSDFTESLKKIKRSVSPQTLEAYIRWNKDFGDTTV | binds |
| CEP55 (protein, UniProt Q53EZ4 1-464) MSSRSTKDLIKSKWGSKPSNSKSETTLEKLKGEIAHLKTSVDEITSGKGKLTDKERHRLLEKIRVLEAEKEKNAYQLTEKDKEIQRLRDQLKARYSTTTLLEQLEETTREGERREQVLKALSEEKDVLKQQLSAATSRIAELESKTNTLRLSQTVAPNCFNSSINNIHEMEIQLKDALEKNQQWLVYDQQREVYVKGLLAKIFELEKKTETAAHSLPQQTKKPESEGYLQEEKQKCYNDLLASAKKDLEVERQTITQLSFELSEFRRKYEETQKEVHNLNQLLYSQRRADVQHLEDDRHKTEKIQKLREENDIARGKLEEEKKRSEELLSQVQFLYTSLLKQQEEQTRVALLEQQMQACTLDFENEKLDRQHVQHQLHVILKELRKARNQITQLESLKQLHEFAITEPLVTFQGETENREKVAASPKSPTAALNESLVECPKCNIQYPATEHRDLLVHVEYCSK | binds |

Now from value to molecule:

| binding | Molecule |
| --- | --- |
| binds | Alix (from UniProt Q8WUM4 1-868) |
| binds | CIT-K (from UniProt O14578 1-2027) |
| binds | Anillin (protein, UniProt Q9NQW6 1-1124) MDPFTEKLLERTRARRENLQRKMAERPTAAPRSMTHAKRARQPLSEASNQQPLSGGEEKSCTKPSPSKKRCSDNTEVEVSNLENKQPVESTSAKSCSPSPVSPQVQPQAADTISDSVAVPASLLGMRRGLNSRLEATAASSVKTRMQKLAEQRRRWDNDDMTDDIPESSLFSPMPSEEKAASPPRPLLSNASATPVGRRGRLANLAATICSWEDDVNHSFAKQNSVQEQPGTACLSKFSSASGASARINSSSVKQEATFCSQRDGDASLNKALSSSADDASLVNASISSSVKATSPVKSTTSITDAKSCEGQNPELLPKTPISPLKTGVSKPIVKSTLSQTVPSKGELSREICLQSQSKDKSTTPGGTGIKPFLERFGERCQEHSKESPARSTPHRTPIITPNTKAIQERLFKQDTSSSTTHLAQQLKQERQKELACLRGRFDKGNIWSAEKGGNSKSKQLETKQETHCQSTPLKKHQGVSKTQSLPVTEKVTENQIPAKNSSTEPKGFTECEMTKSSPLKITLFLEEDKSLKVTSDPKVEQKIEVIREIEMSVDDDDINSSKVINDLFSDVLEEGELDMEKSQEEMDQALAESSEEQEDALNISSMSLLAPLAQTVGVVSPESLVSTPRLELKDTSRSDESPKPGKFQRTRVPRAESGDSLGSEDRDLLYSIDAYRSQRFKETERPSIKQVIVRKEDVTSKLDEKNNAFPCQVNIKQKMQELNNEINMQQTVIYQASQALNCCVDEEHGKGSLEEAEAERLLLIATGKRTLLIDELNKLKNEGPQRKNKASPQSEFMPSKGSVTLSEIRLPLKADFVCSTVQKPDAANYYYLIILKAGAENMVATPLASTSNSLNGDALTFTTTFTLQDVSNDFEINIEVYSLVQKKDPSGLDKKKKTSKSKAITPKRLLTSITTKSNIHSSVMASPGGLSAVRTSNFALVGSYTLSLSSVGNTKFVLDKVPFLSSLEGHIYLKIKCQVNSSVEERGFLTIFEDVSGFGAWHRRWCVLSGNCISYWTYPDDEKRKNPIGRINLANCTSRQIEPANREFCARRNTFELITVRPQREDDRETLVSQCRDTLCVTKNWLSADTKEERDLWMQKLNQVLVDIRLWQPDACYKPIGKP |
